Experimental data as given in patent US20230212225A1, “PEPTIDE COMPOSTIONS AND METHODS FOR TREATING TAUOPATHIES” (AXOLTIS PHARMA, priority 2019, published 2023).
Part of at least one peptide drawing is inferred or uncertain, most often the ends. Where a SMILES comes first, the peptide text is derived from it. Bridges are numbered along the chain shown (N, C = ends).

Key:
Assay type in all cases: in vivo, mice
[1] = system: Aβ25-35-induced short-term memory deficits; assay: Spontaneous alternation performance (Y-maze), treatment started 1 hour after Aβ25-35 injection, tested D08; settings: for Y-maze % (Sc.Aβ / Vhc = 100) / Y-maze Mean, percentage of alternation: D08
[2] = system: pTau (phosphorylated Tau protein); assay: Brain biomarker assessment, hippocampus ELISA, D11
Protocol: (§1) In order to evaluate potential biological effects of NX210 or NX218 treatments on pathological biomarkers, mice from the Sc.Aβ / Vhc (n=6), Aβ25-35 / Vhc (n=6), Aβ25-35 / NX210 IP 2 mg/kg (n=5) and Aβ25-35 / NX218 IP 2 mg/kg (n=5) groups were sacrificed under anesthesia ten days after ICV injection of Aβ25-35 peptide (D11) and daily compound administrations (once a day).
(§2) For each mouse, the brain was quickly removed and dissected out on an ice-cold metal plate into 2 hemi-hippocampi, 2 hemi-frontal cortices and the rest of brain. Straight after each collection, brain samples were frozen on dry ice and stored at -80° C. After thawing, brain structures were dissociated in 50 mM Tris-150 mM NaCl buffer, pH 7.5, and sonicated for 20 sec. After centrifugation, supernatants containing proteins were used for ELISA assays according to the manufacturer’s instructions (see below). • For Aβ1-42 (amyloid-beta 1-42), use of the left hippocampus, ELISA kit from Cloud-Clone Corp., ref: CEA946Mu; batch: L190107385 • For pTau (phosphorylated Tau protein), use of the left hippocampus, ELISA kit from Fisher Scientific, ref: 10591255; batch: 187860001
(§3) For all assays, the absorbance was read at 450 nm and each sample concentration was calculated by using a specific standard curve. All samples were run in duplicate and the average of these duplicates was used for calculations.

[3] = system: Aβ1-42 (amyloid-beta 1-42); assay: Brain biomarker assessment, hippocampus ELISA, D11
Protocol: as §1, §2, §3

[4] = system: Aβ25-35-induced long-term memory deficits; assay: Step-through passive avoidance test (STPA), D09-D10
[5] = system: Aβ25-35-induced spatial working memory deficits; assay: Place learning in the Morris water-maze (MWM), D09-D14; settings: IP 2 mg/kg once a day
Protocol: The examples are using a model of Tauopathies. In this model, mice were injected intracerebroventricularly (ICV) at Day 01 (D01) with Aβ25-35 peptide (or with scrambled-Aβ peptide (Sc.Aβ) for Sham animals). This severe animal model recapitulates modulations of specific biomarkers (including deposits of brain Amyloid Beta1-42 and hyperphosphorylated Tau protein) involved in the physiopathology and the progression of human Tauopathies, as well as strong cognitive deficits (memory loss) as encountered by the patients (Maurice et al., 1996, 1998, 2013; Meunier et al., 2006).
After the Y-Maze and instead of performing the STPA test, some animals performed the Morris Water-Maze (MWM) test in order to assess spatial working memory deficits (a six-day test from D09 to D14). This gold-standard test consists in a circular pool filled with opaque water placed in a room with external cues (sink, contrasted posters, shelves). A platform is immersed under the water surface during acquisition. Training consists in 3 swims per day for 5 days, performed between D09 to D13, with a 20 min inter-trial time. Each mouse is allowed to swim for 90 sec in order to find the platform, and to stay on it for 20 sec.
A probe test (PT) is performed 24 h after the last swim on D14. For the PT, the platform is removed, and each animal is allowed to swim for 60 sec. The start position for each mouse corresponds to one of two positions remote from the platform location in a counterbalanced order. The platform quadrant is named ‘target’ and other quadrants (opposite, adjacent right and adjacent left) are named ‘other’ during the PT. The time spent in each quadrant is recorded. The results are expressed as the percentage of time spent in the target quadrant compared to the mean percentage of time spent in the three other quadrants.
Every day, the latencies to find the platform during the first (swim1), second (swim2), third (swim3), […] trials were monitored and averaged in this six-day experiment (Maurice et al., 2013).

[6] = IP 2 mg/kg every other day (1/2d)
[7] = once a day, NX210 0.1 mg/kg, NX218 0.1 mg/kg, DPZ 0.25 mg/kg
[8] = 2 mg/kg once a day for ten days
[9] = IP 2 mg/kg once a day, left hippocampus, D11

Structure (SMILES): N=C(N)NCCC[C@@H]1NC(=O)[C@H](CO)NC(=O)[C@@H](NC(=O)[C@H](CO)NC(=O)[C@H](CO)NC(=O)[C@H](Cc2c[nH]c3ccccc23)NC(=O)CNC(=O)[C@H](CO)NC(=O)[C@@H](N)Cc2c[nH]c3ccccc23)CSSC[C@@H](C(=O)NCC(=O)O)NC(=O)[C@H](CO)NC1=O [NX218, W-S-G-W-S-S-C-S-R-S-C-G] (H-WSGWSSCSRSCG-OH; disulfide 7-11; N-terminus and C-terminus assumed)
- effect on spatial short-term working memory deficits (Y-maze), in words ([1]; 1, 2 and 3.75 mg/kg IP, once a day or every other day): significantly rescued
- Y-maze % (Sc.Aβ / Vhc = 100) ([1]; IP 0.1 mg/kg once a day): 58%
- Y-maze Mean, percentage of alternation ([1]; IP 0.1 mg/kg once a day): 43.27%
- Y-maze % (Sc.Aβ / Vhc = 100) ([1]; IP 1 mg/kg once a day): 95%
- Y-maze Mean, percentage of alternation ([1]; IP 1 mg/kg once a day): 70.12%
- Y-maze % (Sc.Aβ / Vhc = 100) [1, 6]: 97%
- Y-maze Mean, percentage of alternation [1, 6]: 72.03%
- Y-maze % (Sc.Aβ / Vhc = 100) ([1]; IP 2 mg/kg once a day): 98%
- Y-maze Mean, percentage of alternation ([1]; IP 2 mg/kg once a day): 72.53%
- Y-maze % (Sc.Aβ / Vhc = 100) ([1]; IP 3.75 mg/kg once a day): 97%
- Y-maze Mean, percentage of alternation ([1]; IP 3.75 mg/kg once a day): 71.56%
- restoration of short-term memory to Sham level (Y-maze), in words ([1]; NX210 at 2 and 3.75 mg/kg, NX218 at 1, 2 and 3.75 mg/kg): complete restoration
- effect on Aβ25-35-induced short-term memory deficits (Y-maze) at subactive dose, in words [1, 7]: do not impede
- effect on brain pTau vs Aβ25-35 / Vhc group, in words [2, 8]: significantly decreased
- pTau %, percentage of the control group (Sc.Aβ / Vhc) [2, 9]: 101%
- pTau Mean [2, 9]: 60.41
- effect on brain Aβ1-42 vs Aβ25-35 / Vhc group, in words [3, 8]: significantly decreased
- Aβ1-42 %, percentage of the control group (Sc.Aβ / Vhc) [3, 9]: 106%
- Aβ1-42 Mean [3, 9]: 23.90
- EL % (Sc.Aβ / Vhc = 100) ([4]; IP 0.1 mg/kg once a day): 436%
- EL Mean, escape latency, retention session ([4]; IP 0.1 mg/kg once a day): 86.75 s
- STL % (Sc.Aβ / Vhc = 100) ([4]; IP 0.1 mg/kg once a day): 46%
- STL Mean, step-through latency, retention session ([4]; IP 0.1 mg/kg once a day): 129.75 s
- EL % (Sc.Aβ / Vhc = 100) ([4]; IP 1 mg/kg once a day): 128%
- EL Mean, escape latency, retention session ([4]; IP 1 mg/kg once a day): 25.58 s
- STL % (Sc.Aβ / Vhc = 100) ([4]; IP 1 mg/kg once a day): 89%
- STL Mean, step-through latency, retention session ([4]; IP 1 mg/kg once a day): 252.42 s
- EL % (Sc.Aβ / Vhc = 100) [4, 6]: 125%
- EL Mean, escape latency, retention session [4, 6]: 24.83 s
- STL % (Sc.Aβ / Vhc = 100) [4, 6]: 97%
- STL Mean, step-through latency, retention session [4, 6]: 274.25 s
- EL % (Sc.Aβ / Vhc = 100) ([4]; IP 2 mg/kg once a day): 123%
- EL Mean, escape latency, retention session ([4]; IP 2 mg/kg once a day): 24.50 s
- STL % (Sc.Aβ / Vhc = 100) ([4]; IP 2 mg/kg once a day): 95%
- STL Mean, step-through latency, retention session ([4]; IP 2 mg/kg once a day): 267.75 s
- EL % (Sc.Aβ / Vhc = 100) ([4]; IP 3.75 mg/kg once a day): 133%
- EL Mean, escape latency, retention session ([4]; IP 3.75 mg/kg once a day): 26.50 s
- STL % (Sc.Aβ / Vhc = 100) ([4]; IP 3.75 mg/kg once a day): 88%
- STL Mean, step-through latency, retention session ([4]; IP 3.75 mg/kg once a day): 250.25 s
- effect on contextual long-term memory deficits (STL and EL), in words ([4]; NX210 2 and 3.75 mg/kg, NX218 1, 2 and 3.75 mg/kg, once a day or every other day): fully rescued
- effect on contextual long-term memory deficits (STL and EL) at subactive dose, in words [4, 7]: do not impede
- effect on learning profile and spatial memory deficits (MWM), in words [5]: significantly rescued
- MWM - Probe test, mean percentage of time spent in the three other quadrants (Other) ([5]; D14): 20.49%
- MWM - Learning profile, Mean time spent to find the platform (last block, heading missing) ([5]; fifth training day): 21.25 s
- MWM - Learning profile - Day 1, Mean time spent to find the platform ([5]; training Day 1): 79.75 s
- MWM - Learning profile - Day 2, Mean time spent to find the platform ([5]; training Day 2): 56.42 s
- MWM - Learning profile - Day 3, Mean time spent to find the platform ([5]; training Day 3): 31.42 s
- MWM - Learning profile - Day 4, Mean time spent to find the platform ([5]; training Day 4): 25.58 s
